Holding throughout (test): two-hybrid; targeted Y2H: PJ69-7A co-transformed with AD and BD clones, 0.005 OD600 cells spotted on selection plates, 30°C, 3 days
The target in test [1] is T1, hub1-D22A mutant (S. cerevisiae) (UniProt Q6Q546).
T1 sequence: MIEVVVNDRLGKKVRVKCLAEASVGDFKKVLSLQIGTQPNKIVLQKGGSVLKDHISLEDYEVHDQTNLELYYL

The target in test [2] is T2, N-terminal BD-Hub1 fusion (S. cerevisiae) (UniProt Q6Q546).
T2 sequence: T1 sequence with A22D

Test [3] concerns the target T3, Hub1 fused to the DNA binding domain (BD) of Gal4 at the C-terminus (S. cerevisiae) (UniProt Q6Q546).
T3 sequence: T1 sequence with A22D

Changes are numbered by the printed parent chain. These are yes or no findings as the source states them, for the method shown. Some entries that bind do so weakly or less than the wild type. For part of these data: Where a sequence is shown, tags or fusion partners need not be part of it.

B1: Full length (FL) Snu66 (protein, UniProt Q12420 1-587)
chain: MNKTENLSIEETNEIREKLGMKPIPVFQEKNTDHKESLSIEETNELRASLGLKLIPPQQNFNSSPPNVHNTSKIDELREKITKFQKKANAPLRMAHLLEETNVNDDSSWLENMDAIPSSHESKRSSTLPRKGATKEDENIDLHNVQVSYNIEALSPKKDTILTLKESSIFDDTDSTEVLENVKAAEENADREKLRLRQMNKDRRQKKKILNVSSLDIEEEEEGEKHSITTTHLIIGAEQGVMKAPNTISAKPPTGKVKVNFDSANNMSDEDGGDFKPLKIKKRKIKDPRSTKARKSKITDKMEIVKLVDEDESLSWMEEEQPVTIINPRTSSNNELKGPEDLAREIEKARDEEKRRTESILKMREISNSIVVDEKVTFLNTLDTSLSERSATENKVKVHGEGEKNIGDVTNGHTKEGSGNNTLTEAVNNEPNYEGDAENAPNFFSGLASTLGYLRKKSVFTTGDVDLKPGKDVNNSESLRRDVRNKEHTGTGTYTKDKLHGLEQFTSSDSSNANTHSKRQDHYDPDIKLVYRDEKGNRLTTKEAYKKLSQKFHGTKSNKKKRAKMKSRIEARKNTPENGSLFEFDDN
Take B1: the binding entry was “no binding” in test [1], “binds” in test [2] and “binds” in test [3].
